The nature of the experiment: qHTS Assay for Lipid Storage Modulators in Drosophila S3 Cells.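 On cell number change: cells counted by Cell Tracker Red CMTPX staining in the red channel.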 Conditions: BODIPY lipid droplet fluorescence, 18-24 h; for cell number change: measured here: cell count max response, cells fed with added oleic acid. In outline:
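Drosophila S3 cells got compounds at several concentrations plus oleic acid (400 uM solution). Laser-scanning cytometry with 488 nm excitation read lipid droplets at 500-530 nm and cells at 575-640 nm. Percent activity was relative to 20 uM Triacsin C.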
On the technique in general: Quantitative high-throughput screening tests each substance at several concentrations.

The mark [1] stands for this setting: measured here: lipid fluorescence (Fed channel) AC50, cells fed with added oleic acid.
Where [2] appears, read: measured here: cell number channel AC50, cells fed with added oleic acid.

Experimental findings from PubChem BioAssay AID2685 (National Center for Advancing Translational Sciences (NCATS), 2010) are described below.

SMILES strings stand for the structures. The list shows a part of the results. Further columns of the screen follow, without active or inactive calls. Compounds called inactive in the main read-out are mostly missing here. The note in brackets gives the kind of curve behind each potency; many fits are weak.

As a reminder, the AC50 is the concentration at which the activity in the assay is half-maximal. Higher therefore signals activity only at high concentration. On to `Cc1c(NC(=O)Nc2ccc3c(c2)OCO3)cccc1[N+](=O)[O-]`, for which the cell number change was 28.5%. Under setting [1], the AC50 was 8.2 µM [rising, partial curve]. Regarding `CC1CN(C(=O)CCC(=O)NCc2ccccc2)c2ccccc2O1` (stereo not given), the cell number change was determined as 20.5%. In addition, under setting [2], the AC50 is 3.26 µM [rising, full curve, poor fit]. Regarding `O=NN(CCc1ccncc1)c1ccc(OCc2ccccc2)cc1`, the cell number change is -29.9%. Also, the AC50 under setting [1] is 18.4 µM [falling, single point].

Regarding `O=C(COC(=O)CCC(=O)c1cccs1)NCc1ccc(Cl)cc1`, the AC50 under setting [2] was 0.291 µM [rising, partial curve, poor fit]. `Cc1noc(C)c1C(=O)Nc1nc(-c2ccc(F)cc2)cs1`: the cell number change was -5.01%. In addition, under setting [1], the AC50 was 0.651 µM [rising, partial curve, poor fit].

On to `O=c1[nH]oc(O)c1-c1ncc(C(F)(F)F)cc1Cl`, for which the cell number change is -55.7%. Under setting [2], the AC50 was 29.1 µM [falling, single point]. The AC50 under setting [1] was 29.1 µM [falling, single point].

As for `Cc1ccc(NC(=O)c2ccc3c(=O)n4c(nc3c2)CCC4)cc1S(=O)(=O)N(C)C`, the cell number change worked out at 33%. In addition, the AC50 under setting [2] was 8.2 µM [rising, partial curve, poor fit]. Take `CN(CCOc1ccc(Cl)cc1)C(=O)c1cc(S(=O)(=O)N2CCOCC2)ccc1N1CCCC1`: the cell number change was -1.2%. Also, the AC50 under setting [1] was 29.1 µM [falling, single point]. For the compound `Cc1[nH]c(=O)c(C#N)c(C)c1Br`, the cell number change was -185%. Also, the AC50 under setting [2] is 18.4 µM [falling, single point]. As for `Cc1cc(C)n(CC(=O)N/N=C/c2cccs2)n1`, the cell number change was -7.96%. Under setting [1], the AC50 was 20.6 µM [rising, single point]. Take `CC1CN(C(=O)COC(=O)c2cc(=O)c3ccccc3o2)CC(C)O1` (stereo not given): the cell number change is -18.1%. Also, the AC50 under setting [1] is 0.206 µM [rising, single point]. For `Cc1nc2ccc(Cl)cc2c(-c2ccccc2F)c1CC(=O)O`, the cell number change is 78.6%. Also, under setting [2], the AC50 is 16.4 µM [rising, single point]. On to `O=C(NCCc1ccccc1)C1CCN(c2nc3ccccc3o2)CC1`, for which the cell number change is -32.2%. The AC50 under setting [2] is 9.2 µM [falling, partial curve]. As for `CCOC(=O)C1=C(c2ccccc2)NC(=O)NC1c1ccc(OC)c(OC)c1` (stereo not given), the cell number change was 43.6%. For the same compound, the AC50 under setting [2] is 16.4 µM [rising, single point]. For the same compound, the AC50 under setting [1] is 23.1 µM [rising, partial curve].

Regarding `O=C(O)CC(NC(=O)C12CC3CC(CC(C3)C1)C2)c1ccc(Cl)cc1` (stereo not given), the cell number change turned out to be 9.22%. The same measure, in the same setting: the result for `CNC(=S)Nc1ccc(OCc2ccccc2)cc1` reads -34.3%. For the compound `CCOC(=O)N1CCN(c2nc(-c3cccc(OC)c3)cc(C(F)(F)F)n2)CC1`, the cell number change was -20.6%. Under setting [1], the AC50 is 18.4 µM [falling, partial curve]. `CC(=O)c1cc2c(s1)-c1cc(F)ccc1OC2`: the cell number change was determined as 21.6%. Besides, under setting [1], the AC50 was 0.291 µM [rising, partial curve]. Regarding `CC(=O)c1cccc(NC(=O)c2cnn(-c3ccccc3)c2C)c1`, the cell number change was -26.9%. With `Cc1c(Cl)cccc1NC(=O)c1nc(C)n(-c2cc(OC(C)C)c(Cl)cc2Cl)n1`, the cell number change was -35.1%. Also, the AC50 under setting [2] was 0.103 µM [falling, full curve, poor fit]. In addition, the AC50 under setting [1] is 20.6 µM [falling, partial curve]. Regarding `CC(OC(=O)c1ccc(Cl)c(S(=O)(=O)N2CCOCC2)c1)C(=O)Nc1ccc(S(N)(=O)=O)cc1` (stereo not given), the cell number change was -69.1%. The AC50 under setting [2] was 32.6 µM [falling, partial curve]. In the case of `O=C(NCc1ccc(F)cc1)C1CCCN(S(=O)(=O)c2cccc3nonc23)C1` (stereo not given), the cell number change is 97.7%. Besides, the AC50 under setting [2] is 29.1 µM [rising, single point]. For `CCCCNC(=O)COC(=O)c1ccc(F)cc1Cl`, the cell number change came to 52.2%. Further, the AC50 under setting [2] was 32.6 µM [rising, single point]. As for `CC1CN(c2ncnc3c2cnn3-c2ccc(Cl)cc2)CC(C)O1` (stereo not given), the cell number change was 19.7%. Further, the AC50 under setting [1] was 2.31 µM [falling, partial curve]. Turning to `COCc1cc(C)nc(SCC(=O)Nc2ccc3[nH]c(=O)[nH]c3c2)c1C#N`, the cell number change was 90.4%. Under setting [2], the AC50 was 18.4 µM [rising, partial curve]. Take `O=C(Nc1ccccc1C(F)(F)F)N1CCC(N2CCCCC2)CC1`: the cell number change is -8.4%. Moreover, under setting [1], the AC50 is 0.146 µM [falling, full curve]. With `COc1ccc(COC(=O)c2ccc(S(=O)(=O)N3CCCCC3)cc2)cc1OC`, the cell number change came out at 30%. With `CN(Cc1ccccc1)C(=O)COC(=O)C1CCN(S(=O)(=O)c2cccs2)CC1`, the cell number change was -14.3%. Besides, under setting [1], the AC50 is 1.16 µM [falling, full curve]. `Cc1ccc(NC(=O)CN(C)S(=O)(=O)c2cccc3nsnc23)cc1`: the AC50 under setting [2] is 0.184 µM [rising, full curve, poor fit]. With `COc1cccc(OC)c1OCCNC(C)(C)C`, the cell number change was determined as 25.1%. Besides, under setting [1], the AC50 is 29.1 µM [rising, single point]. Take `COc1ccc(NC2=NC(=S)N(c3ccc(C)cc3)C23CCCCC3)cc1`: under setting [1], the concentration at half-maximal activity (AC50) is 3.26 µM [rising, single point]. Take `CC(=O)N1CCN(c2ccc(NC(=O)c3ccco3)cc2Cl)CC1`: the AC50 under setting [1] was 10.3 µM [rising, partial curve, poor fit]. As to `CCN(CC(=O)NC(C)(C)C)C(=O)c1ccccc1SCC(=O)NC1CCCCCCC1`, the cell number change was -19.2%. `Cc1ccc(-c2[nH]c3ccccc3c2SCCN)cc1`: the cell number change was 24.8%. Further, under setting [1], the AC50 is 29.1 µM [rising, single point]. As to `CCN(CC)C(CNS(=O)(=O)c1ccc(Cl)cc1)c1ccccc1` (stereo not given), the cell number change is -13.1%. Besides, under setting [1], the AC50 is 0.00517 µM [falling, full curve, poor fit]. As for `Cc1ccc(NC(=O)c2ccc3nc(N4CCOCC4)sc3c2)c(Cl)c1`, the cell number change came out at 5.99%. Under setting [1], the AC50 was 14.6 µM [rising, partial curve, poor fit]. Regarding `COc1ccc(CCN2CC(C(=O)N(C)Cc3cccnc3)CC2=O)cc1OC` (stereo not given), the cell number change stood at 32%. The AC50 under setting [2] was 7.31 µM [rising, partial curve, poor fit]. Also, the AC50 under setting [1] is 29.1 µM [rising, single point]. Turning to `CN1CC2(Cc3c1ccc1ccccc31)C(=O)OC(C)(C)OC2=O`, the cell number change is -1.66%. Under setting [1], the AC50 was 6.51 µM [falling, single point].

In the case of `COC(=O)Cn1c2nc3ccccc3nc2c2cccc(C)c21`, the AC50 under setting [2] was 1.84 µM [rising, partial curve, poor fit]. `CSc1nc2sc3c(c2c(=O)n1C)CCCC3`: the cell number change was determined as 23.1%. Moreover, the AC50 under setting [1] is 29.1 µM [rising, single point].

Turning to `O=C(c1ccc(Oc2ccc(C(F)(F)F)cc2[N+](=O)[O-])cc1)N1CCOCC1`, the cell number change was -27.9%. Under setting [2], the AC50 is 1.64 µM [falling, single point].

For the compound `Cc1ccc(O)c(C2=Nc3ccccc3N=C(c3ccc([N+](=O)[O-])cc3)C2)c1`, the cell number change is -8.99%. In the case of `Cc1ccc(NC(=O)Cc2nnc(SCC(=O)Nc3ccccc3)n2C)cc1`, the cell number change stood at 7.83%. Further, the AC50 under setting [1] was 14.6 µM [rising, single point]. Regarding `C#CCOc1ccc(/C=N/NC(=O)c2cccnc2)cc1OCC`, the cell number change turned out to be 36.3%. `Cc1ccc(C(=O)c2c3ccc(C(F)(F)F)cc3[n+]([O-])n2CCCN)cc1`: the cell number change was -32.2%. For the same compound, the AC50 under setting [2] was 10.3 µM [falling, single point]. Under setting [1], the AC50 was 32.6 µM [falling, single point]. As to `O=C(CSc1ccc(-c2ccccc2)nn1)NCc1ccco1`, the cell number change is -33%. For the same compound, the AC50 under setting [2] was 9.2 µM [falling, partial curve].

Consider `COc1cc(/C=N/OCC(=O)Nc2ccc(OC(F)F)cc2)ccc1OCc1ccccc1`, for which the cell number change was determined as 27.3%. For the same compound, the AC50 under setting [2] was 0.82 µM [rising, full curve]. Further, the AC50 under setting [1] is 2.91 µM [falling, single point].

As for `COCc1c(C(=O)NCC2COc3ccccc3O2)oc2ccccc12` (stereo not given), the cell number change was 20.6%. In addition, the AC50 under setting [1] is 13 µM [rising, partial curve]. As for `Cc1ccc(S(=O)(=O)NC2c3cccc4cccc(c34)C2Sc2ncccn2)cc1` (stereo not given), the cell number change was -11.3%. Further, the AC50 under setting [1] is 29.1 µM [falling, single point]. For `N#Cc1c(N)c(C(=O)c2ccccc2)n2c1CCCC2`, the AC50 under setting [2] is 0.291 µM [rising, single point]. Consider `CC1CCC(C(C)C)C(OC(=O)C[n+]2cc(-c3ccc(Cl)cc3)n3c2CCCCC3)C1` (stereo not given), for which the cell number change is -65.9%. In addition, under setting [2], the AC50 was 1.64 µM [falling, partial curve, poor fit]. In addition, under setting [1], the AC50 was 29.1 µM [falling, partial curve, poor fit].

As for `COCCn1c(SCC(=O)Nc2ccc3c(c2)CCC3)nc2ccccc2c1=O`, the cell number change is -31.4%. For the same compound, the half-maximal activity concentration (AC50) under setting [2] is 18.4 µM [falling, single point]. For `C/C(=N\NC(=O)CC#N)c1cc2ccccc2oc1=O`, the AC50 under setting [2] was 6.51 µM [rising, single point] and the AC50 under setting [1] is 5.17 µM [rising, partial curve]. `NC(=O)N/N=C/c1c(F)c(F)c(F)c(F)c1F`: the cell number change was -25.2%. In addition, the AC50 under setting [1] was 6.51 µM [falling, single point]. `Cc1ccc(C2=NC(C(F)(F)F)(C(F)(F)F)c3c(n(-c4ccc(F)cc4)c(=O)[nH]c3=O)N2)cc1`: the cell number change is -16.7%. Moreover, the AC50 under setting [1] was 32.6 µM [falling, single point]. On to `O=C1CC(c2ccc(Cl)cc2)c2c(O)cc(O)cc2O1` (stereo not given), for which the cell number change was -10%. Also, the AC50 under setting [1] was 0.0517 µM [rising, full curve, poor fit]. On to `Cc1c(C(=O)NNC(=O)c2ccncc2)oc2ccccc12`, for which the cell number change is 22.4%. Also, the AC50 under setting [1] was 9.2 µM [rising, partial curve, poor fit]. `CCN(Cc1cc2ccccc2[nH]c1=O)C(=O)C(C)C`: the cell number change worked out at 1.51%. Besides, under setting [1], the AC50 is 6.51 µM [rising, single point]. For the compound `COc1ccc(OC)c(C(=O)c2coc3ccc(O)c(CN4CCOCC4)c23)c1`, the AC50 under setting [1] was 0.58 µM [falling, full curve]. On to `CCCS(=O)(=O)N1CCCC(C(=O)NCc2ccco2)C1` (stereo not given), for which the cell number change was determined as 11.8%. Regarding `CC(=O)N1N=C(c2ccncc2)OC12CCCCC2`, the cell number change was 16.8%. Besides, under setting [1], the AC50 is 18.4 µM [rising, single point].

For `CN(CC(=O)N1CCN(c2ccccc2)CC1)C1CCCc2ccccc21` (stereo not given), the cell number change worked out at 26.6%.
